At least one structure is not confirmed: it was looked up by name or label, or the drawing left a doubt.
Experiments:
C57BL/6 DIO mice [1] = test: Chronic treatment of DIO mice with anti-GIPR 2.63.1 in combination with Liraglutide, Dulaglutide or Exendin IV; type: in vivo, mouse; details: 2.63.1 25 mg/kg once a week, Dulaglutide 1 mg/kg twice a week, Liraglutide 0.3 mg/kg once a day, Exendin IV 0.01 mg/kg once a day, i.p.
Method: Male C57BL/6 DIO mice were purchased from Jackson laboratory. Mice were singly housed and continued on high fat diet (60 kcal % fat, Research diet) after arrival. […] All treatments were administrated intraperitoneally. Blood samples were collected from tail vein or cardiac puncture at termination. Serum insulin levels were determined by using mouse high range insulin ELISA (ALPCO Diagnostics). The triglyceride levels were measured using an infinity triglyceride assay kit (Thermo Scientific). Total cholesterol was measured using an infinity total cholesterol kit (Thermo Scientific). Body composition was determined using the minispec whole body composition analyzer (Bruker). For oral glucose tolerance test, mice were fasted for 4 h. Glucose levels were measured and blood samples were taken from the tail vein before the OGTT was initiated. A bolus of glucose (2 g/kg) was given orally by a gavage needle. Glucose levels were measured at 15, 30 and 60 min after glucose administration using a glucose meter (Abbott).

C57BL/6 DIO mice [2] = test: Chronic treatment of DIO mice with anti-GIPR 2.63.1 in combination with Liraglutide; type: in vivo, mouse
Method: FIG. 24 provides an overview of the study used to determine the effects of chronic treatment of diet induced obese (DIO) mice with the mouse anti-mouse GIPR Ab (2.63.1) in combination with the GLP-1R agonist Liraglutide. Male C57BL/6 DIO mice were purchased from Jackson laboratory. Mice were single housed and continued on high fat diet (60 kcal % fat, Research Diets). Mice at 35 weeks old were randomized into groups and received one of the following treatments: A: vehicle (10 mM acetate, 9% sucrose, pH 5.2, and saline); B: 2.63.1 (30 mg/kg, twice a week); C: Liraglutide (0.3 mg/kg, once a day) and D: 2.63.1 (30 mg/kg, twice a week) and Liraglutide (0.3 mg/kg, once a day). All treatments were administrated intraperitoneally.
Blood samples were collected from tail vein or cardiac puncture at termination. Serum insulin levels were determined by using mouse high range insulin ELISA (ALPCO Diagnostics). Serum leptin levels were measured using mouse and rat leptin ELISA kit from BioVendor. The triglyceride levels were measured using an infinity triglyceride assay kit (Thermo Scientific). Total cholesterol was measured using an infinity total cholesterol kit (Thermo Scientific). At termination, liver, epididymal fat and inguinal fat were isolated and weighed using a balance.
Body composition was determined using the minispec whole body composition analyzer (Bruker).
For the oral glucose tolerance test (OGTT), mice were fasted for 4 hours. Glucose levels were measured and blood samples were taken from the tail vein before the OGTT was initiated. A bolus of glucose (2 g/kg) was given orally by a gavage needle. Glucose levels were measured at 15, 30 and 60 min after glucose administration using a glucose meter (Abbott).

[3] = 2.63.1 30 mg/kg twice a week, Liraglutide 0.3 mg/kg once a day, i.p.

Compound: CCCCCCCCCCCCCCCC(=O)N[C@@H](CCC(=O)NCCCC[C@H](NC(=O)[C@H](C)NC(=O)[C@H](C)NC(=O)[C@H](CCC(N)=O)NC(=O)CNC(=O)[C@H](CCC(=O)O)NC(=O)[C@H](CC(C)C)NC(=O)[C@H](Cc1ccc(O)cc1)NC(=O)[C@H](CO)NC(=O)[C@H](CO)NC(=O)[C@@H](NC(=O)[C@H](CC(=O)O)NC(=O)[C@H](CO)NC(=O)[C@@H](NC(=O)[C@H](Cc1ccccc1)NC(=O)[C@@H](NC(=O)CNC(=O)[C@H](CCC(=O)O)NC(=O)[C@H](C)NC(=O)[C@@H](N)Cc1cnc[nH]1)[C@@H](C)O)[C@@H](C)O)C(C)C)C(=O)N[C@@H](CCC(=O)O)C(=O)N[C@@H](Cc1ccccc1)C(=O)N[C@H](C(=O)N[C@@H](C)C(=O)N[C@@H](Cc1c[nH]c2ccccc12)C(=O)N[C@@H](CC(C)C)C(=O)N[C@H](C(=O)N[C@@H](CCCNC(=N)N)C(=O)NCC(=O)N[C@@H](CCCNC(=N)N)C(=O)NCC(=O)O)C(C)C)[C@@H](C)CC)C(=O)O [Liraglutide, reference compound]
- effect on fat mass loss of the combination GIPR Ab 2.63.1 with GLP-1R agonist (Liraglutide, Dulaglutide or Exendin IV) (C57BL/6 DIO mice [1]): synergistic effect
- effect on weight loss of the combination GIPR Ab 2.63.1 with GLP-1R agonist (Liraglutide, Dulaglutide or Exendin IV) (C57BL/6 DIO mice [1]): synergistic effect
- glucose levels (C57BL/6 DIO mice [2]; [3]): improved
- insulin levels (C57BL/6 DIO mice [2]; [3]): improved
- glucose tolerance (OGTT) (C57BL/6 DIO mice [2]; 4 hours fast, glucose 2 g/kg orally): improved glucose tolerance

From patent US10294303B2, “Method of treating or ameliorating metabolic disorders using binding proteins for gastric inhibitory peptide receptor (GIPR) in combination with GLP-1 agonists” (AMGEN INC., priority 2015, dated 2019)
